Experiment [1] concerns the target TFEB (as used in the PLA with mNG::APEX1 WT and mutants, Figure S4 M) (UniProt P19484). As to the kind of experiment: proximity ligation; Duolink PLA in WT HeLa cells stably expressing mNG::stop, mNG::APEX1 WT or mNG::APEX1 mutants, transfected with siAPEX1; indicated plasmids transiently transfected; untreated or 1 mM LLOMe for 1 h.
Experiment [2] has as its target MITF::EGFP (UniProt O75030). As to the kind of experiment: proximity ligation; Duolink PLA in WT HeLa cells expressing TFE3::EGFP or MITF::EGFP, indicated plasmids transiently transfected; untreated or 1 mM LLOMe for 3 h.
Experiment [3] addresses TFE3::EGFP (UniProt P19532). Described as above.
Experiment [4] concerns the target TFEB::EGFP (UniProt P19484). As to the kind of experiment: proximity ligation; Duolink PLA in WT or ATG7 KO HeLa cells stably expressing TFEB::EGFP, 3×FLAG::APEX1 transiently transfected; 1 mM LLOMe for 1 h or 3 h; anti-FLAG (mouse) and anti-GFP (rabbit) primary antibodies.
Experiment [5] addresses TFEB::EGFP (UniProt P19484). Description: condition: only untreated control cells (without LLOMe); proximity ligation; Duolink PLA in HeLa cells stably expressing TFEB::EGFP, 3×FLAG::APEX1 transiently transfected; untreated control cells (no LLOMe); anti-FLAG and anti-GFP primary antibodies.
Experiment [6] addresses TFEB::mNG (transcription factor EB fused to mNeonGreen) (UniProt P19484). As to the kind of experiment: co-IP; WT or ATG7 KO HeLa cells with or without stable TFEB::mNG, 3×FLAG-tagged protein transiently transfected; untreated or 1 mM LLOMe for 3 h; 0.1% formaldehyde cross-linking; HEPES-RIPA lysate; mNG-Trap magnetic agarose beads at 4°C overnight; immunoblots of FLAG and TFEB.

The chains behind the UniProt entries cited, without tags or fusion partners. Where a name states a change or a piece, a line headed by the entry shows the natural chain unless it says otherwise.
UniProt P19484: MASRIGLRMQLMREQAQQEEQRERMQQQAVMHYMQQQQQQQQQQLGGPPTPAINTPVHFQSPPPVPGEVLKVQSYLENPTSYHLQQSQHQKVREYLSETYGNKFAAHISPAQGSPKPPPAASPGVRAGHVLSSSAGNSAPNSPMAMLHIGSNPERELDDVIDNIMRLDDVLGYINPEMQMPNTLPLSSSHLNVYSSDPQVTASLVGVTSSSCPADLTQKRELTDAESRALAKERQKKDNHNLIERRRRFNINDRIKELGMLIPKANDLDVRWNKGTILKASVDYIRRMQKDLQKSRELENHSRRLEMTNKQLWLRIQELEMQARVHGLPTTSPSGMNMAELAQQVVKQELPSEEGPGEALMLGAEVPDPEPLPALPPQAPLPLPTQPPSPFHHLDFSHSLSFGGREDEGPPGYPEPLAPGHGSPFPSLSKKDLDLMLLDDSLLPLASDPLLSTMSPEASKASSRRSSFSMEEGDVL
UniProt O75030: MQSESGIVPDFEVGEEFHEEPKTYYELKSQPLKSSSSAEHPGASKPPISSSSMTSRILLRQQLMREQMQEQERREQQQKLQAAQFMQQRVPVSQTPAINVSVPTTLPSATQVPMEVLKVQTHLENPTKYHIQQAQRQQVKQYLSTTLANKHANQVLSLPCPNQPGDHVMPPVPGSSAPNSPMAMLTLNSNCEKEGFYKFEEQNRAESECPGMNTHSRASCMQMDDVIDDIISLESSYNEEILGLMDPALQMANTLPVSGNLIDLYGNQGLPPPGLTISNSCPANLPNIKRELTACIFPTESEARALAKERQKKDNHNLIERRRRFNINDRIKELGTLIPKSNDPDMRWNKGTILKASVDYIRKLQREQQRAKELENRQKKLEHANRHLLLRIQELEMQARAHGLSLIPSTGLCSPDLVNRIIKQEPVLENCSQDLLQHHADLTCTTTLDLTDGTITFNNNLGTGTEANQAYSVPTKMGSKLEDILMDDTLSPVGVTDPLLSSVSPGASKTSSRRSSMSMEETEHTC
UniProt P19532: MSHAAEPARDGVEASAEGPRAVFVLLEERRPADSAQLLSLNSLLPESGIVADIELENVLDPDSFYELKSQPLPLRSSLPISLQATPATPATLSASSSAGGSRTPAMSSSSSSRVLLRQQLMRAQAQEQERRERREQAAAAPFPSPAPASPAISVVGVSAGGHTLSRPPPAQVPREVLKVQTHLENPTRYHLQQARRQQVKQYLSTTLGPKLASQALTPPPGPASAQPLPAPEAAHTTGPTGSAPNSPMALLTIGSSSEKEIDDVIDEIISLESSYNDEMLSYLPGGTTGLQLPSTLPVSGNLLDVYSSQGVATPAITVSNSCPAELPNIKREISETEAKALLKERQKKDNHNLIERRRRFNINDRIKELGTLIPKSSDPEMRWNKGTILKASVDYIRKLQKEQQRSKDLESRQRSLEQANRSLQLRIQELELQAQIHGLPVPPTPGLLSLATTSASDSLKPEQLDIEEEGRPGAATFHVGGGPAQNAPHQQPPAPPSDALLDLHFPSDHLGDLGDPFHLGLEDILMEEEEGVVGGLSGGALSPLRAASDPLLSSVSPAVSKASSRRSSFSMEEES
UniProt P27695: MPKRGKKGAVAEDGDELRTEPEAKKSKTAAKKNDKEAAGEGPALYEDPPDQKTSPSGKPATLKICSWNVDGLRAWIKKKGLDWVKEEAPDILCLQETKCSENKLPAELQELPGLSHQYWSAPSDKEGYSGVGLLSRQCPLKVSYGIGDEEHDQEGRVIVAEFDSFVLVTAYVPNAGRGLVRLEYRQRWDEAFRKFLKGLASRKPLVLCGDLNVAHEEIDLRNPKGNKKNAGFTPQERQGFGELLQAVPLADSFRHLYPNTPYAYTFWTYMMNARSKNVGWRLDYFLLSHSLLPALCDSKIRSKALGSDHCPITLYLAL

No constants are given. Whether binding was seen depends on the method and setting. Binding seen in cells or lysates may run through a third protein. Some binding calls cover weakened binding; strength is not graded here. For some of these results: Tags and fused reporters may be left off the sequences shown.

In the case of “mNG::APEX1 C65A (redox inactive APEX1 mutant, KD-resistant) (from UniProt P27695 1-318)”, the binding entry in experiment [1] is recorded as “no binding”. On to “3×FLAG::APEX1 (from UniProt P27695 1-318)”, for which the binding entry is reported as “no binding” in experiment [2], “no binding” in experiment [3], “binds” in experiment [4] and “no binding” in experiment [5]. For “mNG::APEX1 Δ1-33 (nuclear localization signal depleted APEX1 mutant, KD-resistant) (from UniProt P27695 34-318) (domain or fragment)”, in experiment [1], the binding entry is listed as “no binding”.

B1: 3×FLAG::TRIP6 (protein, UniProt Q15654 1-476)
chain: MSGPTWLPPKQPEPARAPQGRAIPRGTPGPPPAHGAALQPHPRVNFCPLPSEQCYQAPGGPEDRGPAWVGSHGVLQHTQGLPADRGGLRPGSLDAEIDLLSSTLAELNGGRGHASRRPDRQAYEPPPPPAYRTGSLKPNPASPLPASPYGGPTPASYTTASTPAGPAFPVQVKVAQPVRGCGPPRRGASQASGPLPGPHFPLPGRGEVWGPGYRSQREPGPGAKEEAAGVSGPAGRGRGGEHGPQVPLSQPPEDELDRLTKKLVHDMNHPPSGEYFGQCGGCGEDVVGDGAGVVALDRVFHVGCFVCSTCRAQLRGQHFYAVERRAYCEGCYVATLEKCATCSQPILDRILRAMGKAYHPGCFTCVVCHRGLDGIPFTVDATSQIHCIEDFHRKFAPRCSVCGGAIMPEPGQEETVRIVALDRSFHIGCYKCEECGLLLSSEGECQGCYPLDGHILCKACSAWRIQELSATVTTDC
As to B1, in experiment [6], the binding result is reported as “binds”.

The record behind these values is article PMC12396377.
